Chains of the proteins cited; added tags and fusions are not shown.
UniProt Q8N884: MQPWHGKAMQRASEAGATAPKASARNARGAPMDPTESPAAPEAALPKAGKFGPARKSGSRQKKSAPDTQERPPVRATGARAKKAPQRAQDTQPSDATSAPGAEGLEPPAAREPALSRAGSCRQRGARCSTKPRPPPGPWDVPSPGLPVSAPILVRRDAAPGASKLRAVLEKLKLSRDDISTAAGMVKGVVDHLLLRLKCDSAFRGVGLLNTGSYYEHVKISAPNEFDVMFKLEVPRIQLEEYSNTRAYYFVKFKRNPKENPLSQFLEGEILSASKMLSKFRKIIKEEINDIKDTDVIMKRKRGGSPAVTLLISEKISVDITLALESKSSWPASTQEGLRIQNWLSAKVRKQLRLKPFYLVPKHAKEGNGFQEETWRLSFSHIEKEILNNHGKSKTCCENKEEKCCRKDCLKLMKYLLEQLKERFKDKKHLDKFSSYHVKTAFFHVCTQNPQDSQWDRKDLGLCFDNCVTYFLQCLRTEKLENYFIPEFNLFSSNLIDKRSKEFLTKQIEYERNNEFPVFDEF
UniProt O60264: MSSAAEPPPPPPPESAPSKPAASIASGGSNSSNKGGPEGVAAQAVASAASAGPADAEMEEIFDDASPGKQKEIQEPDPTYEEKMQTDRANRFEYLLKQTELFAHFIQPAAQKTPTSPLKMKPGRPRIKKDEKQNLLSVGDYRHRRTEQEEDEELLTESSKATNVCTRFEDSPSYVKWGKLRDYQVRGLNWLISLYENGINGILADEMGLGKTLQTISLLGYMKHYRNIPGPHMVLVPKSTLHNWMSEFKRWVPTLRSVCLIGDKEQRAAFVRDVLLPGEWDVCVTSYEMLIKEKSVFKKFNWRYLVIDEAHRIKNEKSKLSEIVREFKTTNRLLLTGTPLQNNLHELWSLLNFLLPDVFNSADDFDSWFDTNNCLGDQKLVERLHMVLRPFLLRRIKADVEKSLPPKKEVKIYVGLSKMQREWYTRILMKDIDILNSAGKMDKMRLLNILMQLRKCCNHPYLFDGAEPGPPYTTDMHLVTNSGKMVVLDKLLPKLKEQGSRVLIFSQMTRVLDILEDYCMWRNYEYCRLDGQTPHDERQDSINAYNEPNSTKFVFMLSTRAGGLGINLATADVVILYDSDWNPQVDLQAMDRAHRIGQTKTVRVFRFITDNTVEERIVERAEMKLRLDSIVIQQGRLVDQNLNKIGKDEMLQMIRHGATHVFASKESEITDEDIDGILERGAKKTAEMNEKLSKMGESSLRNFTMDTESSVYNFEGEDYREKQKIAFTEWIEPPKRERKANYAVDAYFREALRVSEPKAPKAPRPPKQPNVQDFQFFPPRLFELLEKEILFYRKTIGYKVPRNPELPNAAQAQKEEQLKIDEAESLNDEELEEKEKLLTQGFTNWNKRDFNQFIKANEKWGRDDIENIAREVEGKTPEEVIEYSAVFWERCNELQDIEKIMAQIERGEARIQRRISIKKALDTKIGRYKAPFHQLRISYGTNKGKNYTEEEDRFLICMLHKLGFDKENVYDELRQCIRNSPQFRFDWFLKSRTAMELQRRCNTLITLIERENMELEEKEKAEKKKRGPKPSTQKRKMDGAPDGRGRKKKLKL
UniProt Q8TAQ2: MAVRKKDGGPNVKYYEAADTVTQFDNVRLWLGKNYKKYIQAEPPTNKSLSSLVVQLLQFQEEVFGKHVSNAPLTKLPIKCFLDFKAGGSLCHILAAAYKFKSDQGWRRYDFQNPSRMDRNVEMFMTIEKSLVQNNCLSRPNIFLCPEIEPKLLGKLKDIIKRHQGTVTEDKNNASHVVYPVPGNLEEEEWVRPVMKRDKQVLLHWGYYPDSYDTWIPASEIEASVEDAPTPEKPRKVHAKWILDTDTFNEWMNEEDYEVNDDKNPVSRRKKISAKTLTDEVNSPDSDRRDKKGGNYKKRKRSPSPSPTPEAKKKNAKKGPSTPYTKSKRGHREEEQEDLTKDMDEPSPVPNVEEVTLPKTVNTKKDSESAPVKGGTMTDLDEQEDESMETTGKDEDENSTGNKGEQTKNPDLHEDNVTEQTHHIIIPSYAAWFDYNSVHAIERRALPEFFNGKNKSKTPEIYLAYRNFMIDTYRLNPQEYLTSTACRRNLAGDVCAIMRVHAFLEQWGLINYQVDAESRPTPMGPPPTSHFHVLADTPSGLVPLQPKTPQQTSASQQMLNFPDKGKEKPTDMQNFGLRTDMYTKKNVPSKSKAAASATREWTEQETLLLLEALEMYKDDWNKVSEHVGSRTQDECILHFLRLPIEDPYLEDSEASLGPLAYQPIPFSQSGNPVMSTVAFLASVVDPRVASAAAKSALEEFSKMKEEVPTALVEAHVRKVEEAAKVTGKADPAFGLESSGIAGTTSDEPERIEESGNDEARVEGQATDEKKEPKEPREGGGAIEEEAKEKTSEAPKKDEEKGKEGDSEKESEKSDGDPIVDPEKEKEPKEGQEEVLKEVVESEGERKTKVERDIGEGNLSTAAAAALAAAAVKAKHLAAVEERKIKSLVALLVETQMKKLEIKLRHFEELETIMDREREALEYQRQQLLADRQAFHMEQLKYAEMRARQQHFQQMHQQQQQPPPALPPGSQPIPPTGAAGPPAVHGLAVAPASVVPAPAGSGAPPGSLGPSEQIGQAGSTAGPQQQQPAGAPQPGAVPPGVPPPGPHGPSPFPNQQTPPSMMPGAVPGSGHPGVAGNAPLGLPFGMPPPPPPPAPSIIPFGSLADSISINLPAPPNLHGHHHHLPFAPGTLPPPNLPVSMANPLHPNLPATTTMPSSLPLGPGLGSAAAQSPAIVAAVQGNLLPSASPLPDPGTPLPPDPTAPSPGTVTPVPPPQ
UniProt P51532: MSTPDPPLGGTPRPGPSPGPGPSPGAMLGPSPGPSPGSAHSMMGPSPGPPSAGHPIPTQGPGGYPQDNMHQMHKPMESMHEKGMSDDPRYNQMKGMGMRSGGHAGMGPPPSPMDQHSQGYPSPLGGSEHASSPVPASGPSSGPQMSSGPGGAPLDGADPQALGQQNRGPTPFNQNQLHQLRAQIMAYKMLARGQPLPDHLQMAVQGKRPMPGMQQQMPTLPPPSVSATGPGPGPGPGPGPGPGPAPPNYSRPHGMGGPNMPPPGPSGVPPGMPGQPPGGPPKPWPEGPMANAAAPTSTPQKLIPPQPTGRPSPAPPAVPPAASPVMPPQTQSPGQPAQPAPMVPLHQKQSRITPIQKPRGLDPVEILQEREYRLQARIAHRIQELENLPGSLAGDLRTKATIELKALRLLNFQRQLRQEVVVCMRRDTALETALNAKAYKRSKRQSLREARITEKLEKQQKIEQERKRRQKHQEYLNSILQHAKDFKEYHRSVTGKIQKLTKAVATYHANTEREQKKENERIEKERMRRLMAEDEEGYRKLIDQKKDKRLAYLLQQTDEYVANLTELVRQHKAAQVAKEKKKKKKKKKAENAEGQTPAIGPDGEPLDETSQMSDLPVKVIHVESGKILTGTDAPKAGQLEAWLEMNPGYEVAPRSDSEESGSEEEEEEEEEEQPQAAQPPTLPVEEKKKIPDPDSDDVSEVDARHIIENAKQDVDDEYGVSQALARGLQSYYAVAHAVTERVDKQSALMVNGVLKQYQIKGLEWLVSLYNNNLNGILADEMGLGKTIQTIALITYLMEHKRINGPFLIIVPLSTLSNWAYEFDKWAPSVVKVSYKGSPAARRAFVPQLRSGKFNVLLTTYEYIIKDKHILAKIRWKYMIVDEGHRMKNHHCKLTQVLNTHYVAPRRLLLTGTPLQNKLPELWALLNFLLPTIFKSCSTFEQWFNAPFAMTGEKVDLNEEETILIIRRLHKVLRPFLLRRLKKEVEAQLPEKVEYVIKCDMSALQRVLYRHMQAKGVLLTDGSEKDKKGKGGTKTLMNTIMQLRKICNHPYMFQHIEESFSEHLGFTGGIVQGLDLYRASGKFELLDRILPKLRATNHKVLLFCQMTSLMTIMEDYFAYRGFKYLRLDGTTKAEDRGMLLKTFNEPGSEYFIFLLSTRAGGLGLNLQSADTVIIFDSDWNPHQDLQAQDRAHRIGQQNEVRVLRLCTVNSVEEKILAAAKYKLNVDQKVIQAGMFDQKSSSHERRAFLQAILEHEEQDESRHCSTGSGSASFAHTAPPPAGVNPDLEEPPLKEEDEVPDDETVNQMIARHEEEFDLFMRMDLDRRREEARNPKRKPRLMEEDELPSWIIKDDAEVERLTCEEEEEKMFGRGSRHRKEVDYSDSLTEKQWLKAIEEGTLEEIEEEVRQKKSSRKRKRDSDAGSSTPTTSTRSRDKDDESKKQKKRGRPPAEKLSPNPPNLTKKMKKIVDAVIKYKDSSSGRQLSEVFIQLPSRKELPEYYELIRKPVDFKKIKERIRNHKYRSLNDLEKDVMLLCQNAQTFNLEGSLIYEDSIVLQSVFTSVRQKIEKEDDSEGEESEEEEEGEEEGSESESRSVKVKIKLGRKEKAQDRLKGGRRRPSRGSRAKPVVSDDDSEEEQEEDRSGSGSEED
UniProt Q86U86: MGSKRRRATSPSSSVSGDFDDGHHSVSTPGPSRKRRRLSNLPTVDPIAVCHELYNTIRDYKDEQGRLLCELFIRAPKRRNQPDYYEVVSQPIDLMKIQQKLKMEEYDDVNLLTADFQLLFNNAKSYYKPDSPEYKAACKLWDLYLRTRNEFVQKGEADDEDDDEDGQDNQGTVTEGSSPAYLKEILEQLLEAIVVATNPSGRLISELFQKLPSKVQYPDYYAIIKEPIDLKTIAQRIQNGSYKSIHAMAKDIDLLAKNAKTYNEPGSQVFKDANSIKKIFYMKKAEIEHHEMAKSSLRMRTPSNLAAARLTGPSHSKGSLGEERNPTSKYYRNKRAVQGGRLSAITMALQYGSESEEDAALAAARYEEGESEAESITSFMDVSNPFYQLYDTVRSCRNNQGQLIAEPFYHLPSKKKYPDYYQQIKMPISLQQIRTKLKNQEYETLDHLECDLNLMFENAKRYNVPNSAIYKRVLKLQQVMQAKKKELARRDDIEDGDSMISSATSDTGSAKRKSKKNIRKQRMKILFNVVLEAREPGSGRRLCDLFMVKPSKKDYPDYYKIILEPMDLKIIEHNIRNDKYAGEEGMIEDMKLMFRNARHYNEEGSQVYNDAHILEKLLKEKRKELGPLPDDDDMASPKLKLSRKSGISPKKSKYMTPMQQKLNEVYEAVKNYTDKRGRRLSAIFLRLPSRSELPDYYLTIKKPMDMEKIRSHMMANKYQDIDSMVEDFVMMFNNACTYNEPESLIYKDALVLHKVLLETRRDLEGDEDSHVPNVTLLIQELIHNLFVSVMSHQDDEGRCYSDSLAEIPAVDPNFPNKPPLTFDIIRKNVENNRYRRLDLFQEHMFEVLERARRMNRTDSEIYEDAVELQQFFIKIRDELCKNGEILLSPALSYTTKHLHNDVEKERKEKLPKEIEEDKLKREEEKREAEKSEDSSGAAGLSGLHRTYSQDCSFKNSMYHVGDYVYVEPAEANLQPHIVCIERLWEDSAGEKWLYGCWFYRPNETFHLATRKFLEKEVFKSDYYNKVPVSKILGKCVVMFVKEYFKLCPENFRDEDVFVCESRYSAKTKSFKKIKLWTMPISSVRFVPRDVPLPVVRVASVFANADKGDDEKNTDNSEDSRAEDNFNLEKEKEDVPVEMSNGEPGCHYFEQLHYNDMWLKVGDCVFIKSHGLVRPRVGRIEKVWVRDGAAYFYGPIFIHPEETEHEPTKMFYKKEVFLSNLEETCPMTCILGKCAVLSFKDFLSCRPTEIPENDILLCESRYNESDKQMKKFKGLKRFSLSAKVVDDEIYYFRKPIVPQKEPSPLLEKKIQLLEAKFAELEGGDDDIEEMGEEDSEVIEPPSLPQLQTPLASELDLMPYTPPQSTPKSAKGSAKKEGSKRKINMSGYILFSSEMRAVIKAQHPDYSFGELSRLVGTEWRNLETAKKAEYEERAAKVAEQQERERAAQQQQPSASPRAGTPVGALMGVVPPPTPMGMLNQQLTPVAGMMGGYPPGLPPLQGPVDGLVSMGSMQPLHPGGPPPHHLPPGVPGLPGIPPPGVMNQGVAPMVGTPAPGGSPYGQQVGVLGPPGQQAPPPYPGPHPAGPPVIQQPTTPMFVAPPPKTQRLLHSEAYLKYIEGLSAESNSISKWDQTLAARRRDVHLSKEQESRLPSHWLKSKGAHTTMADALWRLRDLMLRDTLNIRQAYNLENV

In PMC11392818:

Target: cGAS (cyclic GMP-AMP synthase) of HCT116 cells (human (endogenous in HCT116)) (UniProt Q8N884)
Experiment: affinity purification with mass spectrometry; cGAS immunoprecipitated from the intranuclear (chromatin) fraction of HCT116 cells (ProteoExtract Kit and Chromatin Extraction Kit), LC-MS/MS, compared with a control group

binding	Substance
binds	SMARCA5 (from UniProt O60264 1-1052)
binds	SMARCC2 (from UniProt Q8TAQ2 1-1214)
binds	SMARCA4 (from UniProt P51532 1-1647)
binds	SMARCD1 (from UniProt Q96GM5 1-515)
binds	PBRM1 (from UniProt Q86U86 1-1689)

No constants are given. Whether binding was seen depends on the method and setting. Binding seen in cells or lysates may run through a third protein. These calls come from enrichment with a bait or labelling near it, and not all partners need be listed.
